The record followed here is PubChem BioAssay AID2685 (National Center for Advancing Translational Sciences (NCATS), 2010).

The other results are listed elsewhere or left out. These are further read-outs of the screen, such as a control signal, another cell line or another target. No call is given for them. Most of these compounds were active or inconclusive in the main read-out, so they are no random draw. Words in brackets tell the shape of the fitted curve; partial curves, single points and poor fits give uncertain potencies.

Usually AC50 stands for the midpoint of the concentration-response curve, whichever way the signal moves.

The experiment in a line: qHTS Assay for Lipid Storage Modulators in Drosophila S3 Cells.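 As to cell number change: cells counted by Cell Tracker Red CMTPX staining in the red channel.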 Particulars: BODIPY lipid droplet fluorescence, 18-24 h; for cell number change: measured here: cell count max response, cells fed with added oleic acid. A digest of the protocol: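 Drosophila S3 cells got compounds at several concentrations plus oleic acid (400 uM solution). Laser-scanning cytometry with 488 nm excitation read lipid droplets at 500-530 nm and cells at 575-640 nm. Percent activity was relative to 20 uM Triacsin C.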
(qHTS replaces the single test concentration by a dilution series.)

[1] abbreviates: measured here: lipid fluorescence (Fed channel) AC50, cells fed with added oleic acid.
[2] abbreviates: measured here: cell number channel AC50, cells fed with added oleic acid.

As for `O=c1c2c([nH]c3ccc(Br)cc13)CCCC2`, the cell number change is -4.08%.
With `COc1cc(OC)cc(C(=O)NC(C(=O)O)C23CC4CC(CC(C4)C2)C3)c1` (stereo unspecified), the cell number change worked out at 1.08%.
On to `CCOc1ccc(NC(=O)CN(C)C(=O)c2ccccc2-n2cnnn2)cc1OCC`, for which the cell number change worked out at 18.9%.
In the case of `Cc1ccc(C(=O)Nc2sc(Cc3ccc4c(c3)OCO4)c(C)c2C(N)=O)cc1`, under setting [1], the AC50 is 1.16 µM [rising, full curve].
As to `Cc1ccc(C)c(NC(=O)Cn2nnc(-c3ccc(N4CCOCC4)cc3)n2)c1`, the cell number change is -28.4%.
Regarding `COc1ccc(C(=O)NC2CCN(C(=O)NC3CCCCC3)CC2)cc1`, the cell number change was -4.29%. Further, the AC50 under setting [1] was 0.103 µM [falling, single point].
For `Fc1ccc(NCc2nnc(SCc3nnc(-c4ccccc4)o3)n2CC2CCCO2)cc1` (stereo unspecified), the AC50 is 2.06 µM [rising, partial curve] under setting [2] and 2.59 µM [rising, partial curve] under setting [1].
For the molecule `Cc1sc2ncnc(-n3nnc4ccccc43)c2c1C`, the cell number change came out at 12.3%. Further, the AC50 under setting [2] was 1.3 µM [rising, single point]. The AC50 under setting [1] was 1.16 µM [rising, single point].
`CCOC(=O)Cn1c(=O)oc2cc(S(=O)(=O)N3CCCc4ccccc43)ccc21`: the cell number change is 11.1%. Besides, under setting [2], the AC50 is 0.291 µM [rising, full curve].
In the case of `CCOc1ccc(NC(=S)/C(=C(\[O-])c2ccc(C)c([N+](=O)[O-])c2)[n+]2ccccc2)cc1`, the cell number change stood at 29.4%. In addition, under setting [1], the AC50 is 6.51 µM [falling, single point].
On to `Cc1cccc(-n2nnc(C(=O)N3CCc4ccccc4C3)c2N)c1`, for which the cell number change amounted to 15.5%.
With `CN(C)CCCNCCCNC(=O)/C=N/O`, the cell number change was -4.41%. Further, the AC50 under setting [1] was 0.0651 µM [rising, full curve].
Take `CCn1nccc1C(=O)Nc1cc(Cl)cc(Cl)c1`: the cell number change was -43.4%. The AC50 under setting [2] was 18.4 µM [falling, single point]. The AC50 under setting [1] is 20.6 µM [falling, single point].
Regarding `O=C(COC(=O)Cc1cccs1)Nc1ccccc1Cl`, the cell number change was -7.33%.
For the molecule `CCNC(=S)N(CCc1c(C)[nH]c2ccc(C)cc12)Cc1cc(OC)c(OC)c(OC)c1`, the cell number change was found to be 11.9%. Under setting [1], the AC50 was 0.82 µM [rising, full curve].
With `O=C1C(Cl)=C(NS(=O)(=O)c2ccc([N+](=O)[O-])cc2)C(=O)c2ccccc21`, the cell number change was -16.3%. For the same molecule, the AC50 under setting [1] is 0.82 µM [falling, partial curve].
As for `O=C(CSc1nnc(C23CC4CC(CC(C4)C2)C3)o1)Nc1ccc(N2CCOCC2)c(Cl)c1`, the cell number change is -2.76%. Under setting [1], the AC50 is 3.26 µM [falling, partial curve].
As for `CCC(C(=O)OC)n1cnc2c(nnn2-c2cccc(Cl)c2)c1=O` (stereo unspecified), the cell number change was -32.3%. In addition, under setting [1], the AC50 is 29.1 µM [falling, single point].
Regarding `O=C(COC(=O)CC1CCCC1)Nc1ccccc1[N+](=O)[O-]`, the cell number change is -3.89%. The AC50 under setting [1] was 14.6 µM [rising, partial curve, poor fit].
In the case of `O=S(=O)(Nc1ccc(Br)cc1)N1CCOCC1`, the cell number change was -28.2%. Moreover, the AC50 under setting [1] was 29.1 µM [falling, single point].
For `CC(C)(C)CC(=O)Nc1cccc(-c2cn3cccnc3n2)c1`, the cell number change is 3.05%. Moreover, the AC50 under setting [1] was 0.82 µM [rising, single point].
Take `C=CCc1ccccc1OCC(=O)N/N=C/c1ccccc1OCC`: the cell number change was determined as 28.6%. Moreover, under setting [1], the AC50 was 0.92 µM [rising, full curve].
`O=C(c1ccccc1)c1cccc(NC(=O)c2ccco2)c1`: the cell number change was -14.4%. For the same molecule, the AC50 under setting [1] was 14.6 µM [rising, single point].
`CCC1(c2ccccc2)NC(=O)N(Cc2cccc([N+](=O)[O-])c2)C1=O` (stereo unspecified): the cell number change is 10.9%.
Take `O=C(Nc1nnc(CCS(=O)(=O)c2ccc3ccccc3c2)s1)c1cccs1`: the cell number change is -66.2%. The AC50 under setting [2] is 13 µM [falling, partial curve, poor fit]. Also, under setting [1], the AC50 is 0.184 µM [falling, full curve, poor fit].
`COc1ccccc1NC(=O)CCCC(=O)OCC(=O)c1ccc(F)cc1`: the cell number change was -0.708%.
With `Cc1cccc(C(=O)OCC(=O)Nc2c(C)n(C)n(-c3ccccc3)c2=O)c1`, the cell number change amounted to 0.963%.
In the case of `CCN(CC)S(=O)(=O)c1cccc(NC(=O)c2ccc(Br)cc2)c1`, the cell number change amounted to 14.2%. Further, under setting [2], the AC50 was 7.31 µM [rising, partial curve].
`O=C(O)c1ccccc1NS(=O)(=O)c1ccc2c3c(cccc13)C(=O)N2`: the cell number change worked out at 0.0183%. Moreover, the AC50 under setting [1] is 0.164 µM [rising, single point].
For the molecule `Cc1ccc(C(=O)NCC(=O)OCC(=O)N2CCCc3ccccc32)cc1`, the cell number change amounted to 11.7%. Further, under setting [1], the AC50 is 2.06 µM [rising, partial curve, poor fit].
As for `COc1ccc(C(=O)c2c(C)oc3ccc(O)cc23)c(OC)c1`, the cell number change is -33.3%. Under setting [2], the AC50 is 29.1 µM [falling, single point].
With `COc1ccc2[nH]c(C)c(CCN(Cc3cccs3)C(=S)Nc3ccc(F)cc3)c2c1`, the cell number change is 43.1%. Further, the AC50 under setting [2] is 2.91 µM [rising, full curve]. The AC50 under setting [1] is 0.731 µM [rising, full curve].
In the case of `CSc1ccccc1OCc1cc(C(=O)N2CCc3sccc3C2)no1`, the cell number change came out at 0.0824%. The AC50 under setting [1] was 2.31 µM [rising, partial curve].
Regarding `CC1=NN(c2ccccc2)C(=O)/C1=C\c1cn(C)c2ccccc12`, the cell number change was -75.2%. In addition, the AC50 under setting [2] is 29.1 µM [falling, single point].
On to `O=C(c1ccccc1)N(Cc1ccccc1)Cc1ccccc1`, for which the cell number change was -13.9%. Further, under setting [1], the AC50 was 0.13 µM [rising, full curve, poor fit].
On to `CCOC(=O)N1CCN(CC(=O)c2c[nH]c3ccc(F)cc23)CC1`, for which the cell number change was -20.3%.
As for `CCc1ccc(CNC(=O)C2CCC(=O)N2C2CCCCC2)cc1` (stereo unspecified), the cell number change is -21.7%.
Take `CN1C(=O)c2cccc3c(S(=O)(=O)Nc4ccccc4F)ccc1c23`: the cell number change amounted to 13%. Under setting [1], the AC50 is 2.91 µM [rising, single point].
With `O=C(c1ccc(Cn2c(=O)[nH]c3ccccc3c2=O)cc1)N1CCN(c2ccc(F)cc2)CC1`, the AC50 under setting [1] was 29.1 µM [rising, single point].
On to `CCCCn1c(N)c(N(CCOC)C(=O)CN2C(=O)C3CCCCC3C2=O)c(=O)[nH]c1=O` (stereo unspecified), for which the cell number change was -4.15%. Moreover, the AC50 under setting [1] is 0.461 µM [falling, partial curve, poor fit].
Turning to `Cc1nn(C(C)C(=O)NCCC2=CCCCC2)c(=O)c2nn(-c3ccccc3)c(C)c12` (stereo unspecified), the cell number change is -14.7%. Also, under setting [2], the half-maximal activity concentration (AC50) is 4.11 µM [falling, partial curve, poor fit].
Turning to `COC(=O)c1ccc(N=Cc2c(C(F)(F)F)[nH][nH]c2=O)cc1`, the cell number change is -59.5%. For the same molecule, the AC50 under setting [2] was 29.1 µM [falling, single point]. Besides, the AC50 under setting [1] was 20.6 µM [falling, single point].
On to `CC(C)CN(C(=O)c1ccc(=O)n(C)n1)c1nc2ccccc2s1`, for which the cell number change was determined as 75.3%. Moreover, under setting [2], the AC50 is 5.8 µM [rising, partial curve, poor fit]. Besides, the AC50 under setting [1] is 11.6 µM [rising, partial curve].
Take `O=C(NC(=S)Nc1ccc(C(=O)N2CCOCC2)cc1)c1ccc([N+](=O)[O-])cc1`: the cell number change was -18.1%.
For the molecule `CC(C)Cn1c(N)c(C(=O)COC(=O)c2cc(F)cc(F)c2)c(=O)n(C)c1=O`, the cell number change is -16.8%. The AC50 under setting [2] is 0.461 µM [rising, single point].
As for `CC(=O)N1CCOc2ccc(S(=O)(=O)N3CCN(c4cc(C)ccc4C)CC3)cc21`, the cell number change came to 32.2%. The AC50 under setting [2] was 4.61 µM [rising, full curve, poor fit]. Further, under setting [1], the AC50 was 0.651 µM [rising, partial curve, poor fit].
In the case of `Cc1ccc(C(CC(=O)NCc2ccco2)c2ccccc2)c(O)c1` (stereo unspecified), the cell number change was -5.42%. Besides, the AC50 under setting [2] was 2.31 µM [falling, partial curve]. Also, the AC50 under setting [1] was 2.06 µM [falling, partial curve].
Regarding `CC(Cn1nnc2ccccc21)C(=O)O` (stereo unspecified), the cell number change is 14.8%. Further, the AC50 under setting [1] was 0.00461 µM [falling, full curve, poor fit].
`CCCCC1(CC(=O)OCC)C(=O)N(c2ccccc2)N(c2ccccc2)C1=O`: the cell number change was determined as 22.7%. Further, the AC50 under setting [2] is 0.651 µM [rising, full curve].
Turning to `O=C(Nc1nnc(SCc2ccccn2)s1)C1CC(=O)N(c2ccc(F)cc2)C1` (stereo unspecified), the cell number change was -14.7%. Also, under setting [1], the AC50 is 6.51 µM [rising, single point].
Consider `CCOc1ccc(NC(=S)NC(C)CCc2ccccc2)cc1` (stereo unspecified), for which the cell number change worked out at 74.2%. Under setting [2], the AC50 was 29.1 µM [rising, single point]. Besides, under setting [1], the AC50 was 20.6 µM [rising, partial curve].
On to `Cc1ccc(C(=O)OCC(=O)Nc2cc(C(C)(C)C)no2)c(C)c1`, for which the cell number change is -71.1%. Further, under setting [2], the AC50 was 14.6 µM [falling, partial curve]. Further, under setting [1], the AC50 is 7.31 µM [falling, partial curve].
For the molecule `CCCCn1c(N)c(N2CCOCC2)c(=O)n(CC(=O)NCCc2ccccc2)c1=O`, the cell number change is -3.94%. Moreover, the AC50 under setting [2] was 2.31 µM [falling, partial curve, poor fit]. Also, the AC50 under setting [1] was 6.51 µM [falling, single point].
On to `COc1ccc(NC(C)=O)cc1S(=O)(=O)NC(C)c1ccc(-n2ccnc2)cc1` (stereo unspecified), for which the cell number change was -6.97%. Further, the AC50 under setting [1] is 0.731 µM [rising, full curve].
In the case of `COCCCNC(=S)NC1CC2CCC(C1)N2Cc1ccccc1` (stereo unspecified), the cell number change was 12.4%. For the same molecule, the AC50 under setting [1] was 1.46 µM [rising, partial curve, poor fit].
Regarding `O=[N+]([O-])c1cccc(S(=O)(=O)NC2CC3CCC2C3)c1` (stereo unspecified), the cell number change is -4.74%. Moreover, the AC50 under setting [2] was 7.31 µM [rising, partial curve, poor fit]. Moreover, the AC50 under setting [1] is 4.61 µM [falling, single point].
In the case of `CCOc1ccc(Br)cc1S(=O)(=O)Nc1nc(CN2CCOCC2)nc2sc(C)c(C)c12`, the cell number change came to 151%.
For `CC1Cc2ccccc2N1S(=O)(=O)c1cccc(C(=O)NCc2ccccn2)c1` (stereo unspecified), the cell number change is 6.7%. In addition, the AC50 under setting [2] is 6.51 µM [falling, single point].
`COc1ccccc1N1CCN(/N=C/c2ccccc2C(=O)O)CC1`: the cell number change worked out at 13.7%. For the same molecule, the AC50 under setting [1] was 13 µM [rising, partial curve].
`COC(=O)Cc1cc(=O)[nH]c(/N=C(\N)Nc2ccc(C)cc2C)n1`: the cell number change is -24.7%.
